Results are given in words; binding and its absence hold for the method and conditions named. A result given as binding can be weak or reduced; the word gives no strength. For some assays here: Sequences can lack the tags named with a protein.

Amino acid sequences for entries named in this document (tags omitted). A change or cut given only in a name is not applied to a line headed by its entry. Residues count along the entry.
UniProt Q06681, residues 482-1259: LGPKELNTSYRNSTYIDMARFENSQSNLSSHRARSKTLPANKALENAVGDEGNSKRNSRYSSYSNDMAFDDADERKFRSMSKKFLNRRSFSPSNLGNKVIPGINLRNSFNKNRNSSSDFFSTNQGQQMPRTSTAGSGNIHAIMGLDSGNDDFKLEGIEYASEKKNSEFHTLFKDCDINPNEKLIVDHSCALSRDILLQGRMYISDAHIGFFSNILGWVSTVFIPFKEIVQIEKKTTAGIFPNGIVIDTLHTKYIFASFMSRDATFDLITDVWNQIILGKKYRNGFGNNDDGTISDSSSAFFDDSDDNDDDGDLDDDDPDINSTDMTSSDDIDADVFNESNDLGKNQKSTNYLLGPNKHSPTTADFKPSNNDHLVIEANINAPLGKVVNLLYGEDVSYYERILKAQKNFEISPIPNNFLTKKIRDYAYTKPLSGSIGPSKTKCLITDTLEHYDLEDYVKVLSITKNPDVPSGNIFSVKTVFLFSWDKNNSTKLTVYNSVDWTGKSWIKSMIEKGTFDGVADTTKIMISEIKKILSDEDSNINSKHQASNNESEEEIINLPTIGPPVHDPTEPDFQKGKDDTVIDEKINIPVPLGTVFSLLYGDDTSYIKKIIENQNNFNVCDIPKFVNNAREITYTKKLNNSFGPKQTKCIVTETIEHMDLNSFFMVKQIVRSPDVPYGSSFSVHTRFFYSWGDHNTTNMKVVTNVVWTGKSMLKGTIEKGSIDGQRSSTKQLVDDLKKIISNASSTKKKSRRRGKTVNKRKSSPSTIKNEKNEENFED

The target in one assay is T1, GST-Laf1 (S. cerevisiae) (UniProt Q03177).
T1 sequence: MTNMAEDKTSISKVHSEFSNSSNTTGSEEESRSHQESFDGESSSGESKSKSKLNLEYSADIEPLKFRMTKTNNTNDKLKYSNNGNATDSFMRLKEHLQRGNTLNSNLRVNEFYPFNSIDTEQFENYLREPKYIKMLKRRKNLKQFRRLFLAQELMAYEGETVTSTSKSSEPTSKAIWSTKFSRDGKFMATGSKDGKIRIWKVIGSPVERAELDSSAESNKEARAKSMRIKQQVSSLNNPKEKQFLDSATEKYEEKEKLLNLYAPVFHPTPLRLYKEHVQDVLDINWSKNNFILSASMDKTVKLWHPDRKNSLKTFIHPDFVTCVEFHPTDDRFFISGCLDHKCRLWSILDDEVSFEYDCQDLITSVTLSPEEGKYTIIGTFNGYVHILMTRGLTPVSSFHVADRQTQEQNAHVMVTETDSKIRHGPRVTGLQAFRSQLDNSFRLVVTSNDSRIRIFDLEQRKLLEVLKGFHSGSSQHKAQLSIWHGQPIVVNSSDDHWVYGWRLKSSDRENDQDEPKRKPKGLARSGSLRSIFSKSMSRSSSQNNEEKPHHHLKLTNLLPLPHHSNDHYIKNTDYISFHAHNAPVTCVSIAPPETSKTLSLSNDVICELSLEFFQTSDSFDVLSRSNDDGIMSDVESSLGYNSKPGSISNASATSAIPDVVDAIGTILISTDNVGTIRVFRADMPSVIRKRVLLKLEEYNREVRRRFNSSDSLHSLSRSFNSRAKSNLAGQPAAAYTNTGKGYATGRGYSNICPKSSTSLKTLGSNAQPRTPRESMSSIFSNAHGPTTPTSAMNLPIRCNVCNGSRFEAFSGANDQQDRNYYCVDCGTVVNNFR
Nature of the assay: pull-down; GST fusion (bait) and His6-tagged Lam fragment incubated 1 h at 4 °C, complexes on glutathione-agarose beads; binding buffer 81 mM NaCl, 4.5 mM KCl, 1.35 mM MgCl2, 0.09% Triton X-100, 0.1 mg/mL BSA, 20 mM HEPES pH 7.5; four washes; immunoblot (anti-His, anti-GST); both purified.

For assay [1], the target named is GST-Laf1(S709A S710A) (S. cerevisiae) (UniProt Q03177). Described as above.

“Lam2(482-1259; T518A L519A)-(His)6 (from UniProt Q06681) (domain or fragment)”: the binding entry with GST-Laf1 (S. cerevisiae) is reported as “binds”.

As to “Lam2(482–1259)-(His)6 (from UniProt Q06681 482-1259) (domain or fragment)”, the binding entry in assay [1] is given as “binds”.

The values above are taken from publication PMC7760575.
